The nature of the assay: qHTS Assay for Lipid Storage Modulators in Drosophila S3 Cells.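 On cell number change: cells counted by Cell Tracker Red CMTPX staining in the red channel.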 The conditions noted are these: BODIPY lipid droplet fluorescence, 18-24 h; for cell number change: measured here: cell count max response, cells fed with added oleic acid. The procedure, abridged:
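Drosophila S3 cells got compounds at several concentrations plus oleic acid (400 uM solution). Laser-scanning cytometry with 488 nm excitation read lipid droplets at 500-530 nm and cells at 575-640 nm. Percent activity was relative to 20 uM Triacsin C.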
Background: Quantitative high-throughput screening tests each substance at several concentrations.

Where [1] appears, read: measured here: cell number channel AC50, cells fed with added oleic acid.
[2] abbreviates: measured here: lipid fluorescence (Fed channel) AC50, cells fed with added oleic acid.

This is one part of the list. These are further read-outs of the screen, such as a control signal, another cell line or another target. No call is given for them. The list favours compounds with an active or inconclusive main result. Words in brackets tell the shape of the fitted curve; partial curves, single points and poor fits give uncertain potencies.

The term AC50 denotes the concentration at which the activity in the assay is half-maximal.

With `CCCCn1c(N)c(N(CC(C)C)C(=O)CSC(C)C(=O)Nc2cc(C)on2)c(=O)[nH]c1=O` (stereo not given), the cell number change was -75%. The AC50 under setting [1] is 1.64 µM [falling, full curve]. Further, under setting [2], the AC50 is 29.1 µM [rising, single point].
Take `CNC(=O)/C(C#N)=C/c1cc(C)n(-c2ccc(N3CCOCC3)cc2)c1C`: the cell number change was -38.2%. Under setting [1], the AC50 was 20.6 µM [falling, single point]. Moreover, under setting [2], the AC50 is 25.9 µM [falling, single point].
As to `COc1ccc(C2C(C(=O)Nc3cc(OC)c(OC)c(OC)c3)c3ccccc3C(=O)N2C)cc1` (stereo not given), the cell number change was determined as 34.8%.
As to `CC(C)(O)[C@@H]1Cc2c(ccc3ccc(=O)oc23)O1`, the cell number change was -25.4%. Under setting [1], the AC50 was 0.13 µM [falling, full curve]. Also, the AC50 under setting [2] is 2.59 µM [falling, full curve].
Turning to `CCOC(=O)N1CCN(C(=O)Cn2nc(C)n3nc(-c4ccccc4)cc3c2=O)CC1`, the cell number change is 22.1%.
On the same count and under the same terms, in the case of `O=C(OCN1C(=O)c2ccccc2C1=O)c1cc(S(=O)(=O)N2CCOCC2)ccc1F` it was -17.2%.
On to `CN(CC(=O)NCc1ccncc1)S(=O)(=O)c1ccc(F)cc1`, for which the cell number change is 17.9%. Moreover, the AC50 under setting [2] is 5.8 µM [falling, partial curve].
`CC(=O)Nc1ccc(S(=O)(=O)NCC(CCC(=O)O)C(F)(F)F)cc1` (stereo not given): the cell number change was -56.5%. Besides, under setting [1], the AC50 was 20.6 µM [falling, single point].
Consider `Cc1cccc(NC(=O)c2ccc(CN3CCN(Cc4ccccc4)CC3)cc2)c1`, for which the cell number change amounted to 0.0397%. Also, the AC50 under setting [2] is 7.31 µM [rising, single point].
Regarding `O=C(c1ccc2ccccc2n1)N1CCN(c2ccccc2Cl)CC1`, the concentration at half-maximal activity (AC50) under setting [1] was 6.51 µM [rising, single point].
`CCCOc1cc(C)c(S(=O)(=O)n2ccc(C)n2)cc1C`: the cell number change amounted to 58.2%. For the same molecule, the AC50 under setting [1] was 9.2 µM [rising, partial curve]. The AC50 under setting [2] is 16.4 µM [rising, partial curve].
Regarding `O=C(COC(=O)c1ccc(O)cc1)Nc1cc(C(F)(F)F)ccc1Cl`, the cell number change was 4.27%.
Regarding `C/C(=N\NC(=O)C(N)=O)c1ccc2c(c1)OCCO2`, the cell number change was -13.1%. The AC50 under setting [2] was 14.1 µM [falling, single point].
As to `Cn1nccc1CNC(=O)c1ccnn1C`, the cell number change is -23.5%. Moreover, the AC50 under setting [1] was 4.61 µM [rising, single point]. Besides, the AC50 under setting [2] is 6.51 µM [rising, single point].
For `Cc1ccc(NC(=O)c2cccc(S(=O)(=O)NCc3ccccc3)c2)nc1`, the cell number change was 79.1%. Further, the AC50 under setting [1] was 20.6 µM [rising, partial curve].
For `CSc1nnc(-c2ccncc2)n1CCCN1CCCC1=O`, under setting [2], the concentration at half-maximal activity (AC50) was 0.92 µM [falling, full curve].
Turning to `CC(NC(=O)C1CCCN1S(=O)(=O)c1cccc2cccnc12)c1ccccc1` (stereo not given), the cell number change is -18.2%.
With `Cc1ccc(S(=O)(=O)Oc2ccc(/C=C(/NC(=O)c3ccccc3)C(=O)O)cc2)cc1`, the cell number change was 3.82%. For the same molecule, the AC50 under setting [1] was 0.651 µM [rising, single point].
As for `Cc1onc(NC(=O)NC(=O)c2c(Cl)cccc2Cl)c1Br`, the AC50 under setting [2] is 29.1 µM [rising, single point].
Still for that read-out and setting: the result for `Cc1ccccc1NC1=NS(=O)(=O)c2ccccc21` reads 29.1 µM [falling, single point].
Consider `CCc1ccc(-c2cc(C(F)(F)F)n3nc(C(=O)Nc4cnn(Cc5ccccc5C)c4)cc3n2)s1`, for which the cell number change was -5.17%. Besides, the AC50 under setting [2] is 1.64 µM [rising, partial curve, poor fit].
On to `O=C(Nc1ccc(NC(=O)c2ccccc2Cl)cc1)c1cccnc1`, for which the cell number change was found to be 6.76%. Further, under setting [2], the AC50 is 0.58 µM [rising, single point].
Take `Cc1cc(C2C(=O)c3ccccc3C2=O)c(C)c(C)c1C`: the cell number change is -0.518%. The AC50 under setting [2] was 0.13 µM [falling, full curve, poor fit].
As to `COc1cc2c(cc1O)[C@@H]1Cc3cc(O)c(OC)cc3[C@H](C2)N1C`, the cell number change is -27.5%. Further, under setting [2], the AC50 is 29.1 µM [falling, single point].
With `Cc1ccc(CNC(=O)c2cc3c(=O)n4cccc(C)c4nc3n(CC3CCCO3)c2=N)cc1` (stereo not given), the cell number change amounted to 8.72%.
For the molecule `COc1ccc(/C=C/C(=O)NC(=S)NCCc2ccc(OC)c(OC)c2)cc1`, the cell number change is -49.1%. Further, the AC50 under setting [1] was 13 µM [falling, single point].
In the case of `O=C(CCS(=O)(=O)c1ccc(Cl)cc1)Nc1nnc(-c2cccs2)o1`, the cell number change came to 53.9%. The AC50 under setting [1] is 29.1 µM [rising, single point].
For the molecule `COc1ccc(Br)cc1/C=N/NC(=O)CNC(=O)c1cccnc1`, the cell number change came to 10.8%. Also, the AC50 under setting [2] is 0.013 µM [rising, full curve, poor fit].
As for `Cc1nn(C)cc1/C=N/NC(=O)CSc1ccccn1`, the cell number change is -21%. The AC50 under setting [1] is 2.06 µM [falling, partial curve, poor fit]. The AC50 under setting [2] was 1.46 µM [falling, partial curve].
Regarding `CCOC(=O)c1sc(SC)c2c1CCC/C2=N/OC`, the cell number change amounted to 49.9%. Also, under setting [1], the AC50 was 0.92 µM [rising, full curve]. In addition, the AC50 under setting [2] is 0.651 µM [rising, full curve, poor fit].
For the molecule `CC(=O)Oc1ccc(N(C(C)=O)S(=O)(=O)c2cccs2)c2ccccc12`, the cell number change came to 20.3%.
With `CC1CCN(C(=O)COC(=O)c2cccc(NS(=O)(=O)c3ccccc3)c2)CC1`, the cell number change was -20.7%. For the same molecule, the AC50 under setting [2] was 20.6 µM [falling, single point].
For the molecule `COc1ccc(C(=O)Nc2ccccc2[N+](=O)[O-])cc1S(=O)(=O)N1CCOCC1`, the cell number change was -18.5%. Under setting [2], the AC50 was 1.84 µM [falling, partial curve].
With `CCCCN(CCCNC(=O)c1ccc(CS(=O)(=O)c2ccc(OC)cc2)o1)Cc1ccccc1`, the cell number change was -35.6%. Moreover, the AC50 under setting [1] is 29.1 µM [falling, single point].
Take `O=C(COC(=O)c1cc[n+]([O-])cc1)Nc1ccccc1Cl`: the cell number change was -4.31%. Besides, the AC50 under setting [1] was 5.17 µM [falling, single point].
In the case of `COc1ccccc1N1CCN(C(c2ccccn2)c2nnnn2C2CCCCC2)CC1` (stereo not given), the AC50 runs as follows: under setting [1], 1.03 µM [rising, full curve]; under setting [2], 0.326 µM [rising, full curve].
As for `COc1ccc(C(=O)/C=C2/C(=O)Nc3ccccc32)c(OC)c1`, the cell number change was -71.1%. The half-maximal activity concentration (AC50) under setting [1] was 14.6 µM [falling, partial curve]. Besides, the half-maximal activity concentration (AC50) under setting [2] is 16.4 µM [falling, single point].
Turning to `O=C(O)c1cccc(C(=O)c2cccc(C(=O)O)c2)c1`, the cell number change was 27.3%.
For the molecule `O=C(NCC(c1cccs1)N1CCOCC1)c1cc(=O)[nH]c2ccccc12` (stereo not given), the cell number change was found to be 19.3%. The AC50 under setting [2] was 0.731 µM [falling, single point].
`CC(NC(=O)c1ccc([N+](=O)[O-])cc1[N+](=O)[O-])c1ccc(-c2ccccc2)cc1` (stereo not given): the cell number change was found to be 32.5%. The concentration at half-maximal activity (AC50) under setting [1] is 2.59 µM [rising, full curve]. Besides, under setting [2], the AC50 was 5.8 µM [rising, partial curve].
On to `CCOc1ccc(C(c2c(NC(=O)c3ccccc3)sc(C)c2C)N2CCN(CCO)CC2)cc1` (stereo not given), for which the cell number change was -36%. Besides, the AC50 under setting [1] was 18.4 µM [falling, partial curve]. The AC50 under setting [2] is 23.1 µM [falling, partial curve].
Consider `O=C(O)CCC(NS(=O)(=O)c1ccc(N2CCCC2=O)cc1)C(=O)O` (stereo not given), for which the cell number change is -4.73%. For the same molecule, the AC50 under setting [2] is 0.0291 µM [rising, full curve].
As to `CC(=O)N(Cc1cccs1)Cc1cc2ccc(C)c(C)c2nc1Cl`, the cell number change was 35.4%. Moreover, the AC50 under setting [1] is 29.1 µM [rising, single point].
For `Cc1ccc(-n2c(=O)c(C#N)cc3c(=O)n4cccc(C)c4nc32)cc1`, the cell number change worked out at 17.2%. The AC50 under setting [2] was 0.58 µM [rising, single point].
On to `CC(C)c1ccccc1OCC(=O)Nc1ccccc1C(=O)N1CCOCC1`, for which the cell number change was -39.2%. In addition, the AC50 under setting [1] was 14.6 µM [falling, single point]. Moreover, the AC50 under setting [2] is 14.6 µM [falling, partial curve].
Turning to `CCc1ccc(/C(C)=N/Nc2cc(Cl)nc(C)n2)cc1`, under setting [1], the AC50 was 0.651 µM [falling, single point].
In the case of `COc1cc(/C=C/C(=O)OCC(=O)Nc2cc(C(F)(F)F)ccc2N2CCOCC2)ccc1O`, the cell number change amounted to 46.1%. Moreover, the half-maximal activity concentration (AC50) under setting [1] is 29.1 µM [rising, single point].
Regarding `C=CCOC(=O)C1=C(C)OC(N)=C(C#N)C1c1ccc(F)cc1` (stereo not given), the cell number change was -16.8%. In addition, the AC50 under setting [2] is 1.3 µM [rising, full curve].
With `CNC(=S)NNC(=O)c1oc2nc(-c3ccccc3)cc(C)c2c1N`, the cell number change stood at 15.4%. The AC50 under setting [2] is 5.8 µM [rising, single point].
On to `S=C1NC2=C(C(c3ccc(Br)cc3)N1)N1CCC2CC1` (stereo not given), for which the cell number change turned out to be 12.8%.
`O=C(Oc1ccc(-c2cnc3ccccc3n2)cc1)c1ccc(Br)o1`: the cell number change is -46.2%. Besides, the AC50 under setting [1] was 20.6 µM [falling, partial curve]. Moreover, the AC50 under setting [2] was 16.4 µM [falling, single point].
As for `COC(=O)C1CCN(Cc2c(C(=O)N3C[C@@H](C)O[C@@H](C)C3)nc3ccc(Cl)cn23)CC1`, the cell number change was -9.57%.
As for `CC(=O)Oc1cccc(N2C(=O)c3ccc(C(=O)Nc4c[nH]c(=O)[nH]c4=O)cc3C2=O)c1`, the AC50 is, setting by setting: under setting [1], 2.06 µM [rising, single point]; under setting [2], 6.51 µM [rising, single point].
With `COc1ccc(CN=C2NN=C(c3ccc(Cl)cc3)CS2)cc1`, the cell number change is 16.2%.
As to `Cc1ccc(NC(=O)CC(O)(C(F)(F)F)C(F)(F)F)c(Br)c1`, the cell number change was -48.9%. Besides, the half-maximal activity concentration (AC50) under setting [1] is 29.1 µM [falling, single point].
Turning to `c1cncc(Nc2nc(-c3ccncc3)cs2)c1`, the cell number change is -6.08%. The AC50 under setting [2] is 2.06 µM [rising, full curve, poor fit].
As for `CCN(CC(=O)Nc1ccc(NC(C)=O)cc1)C(=O)/C=C/c1cn(-c2ccccc2)nc1-c1ccc(C)cc1`, the cell number change was -5.48%. Also, the AC50 under setting [2] is 0.0461 µM [rising, full curve, poor fit].
`COc1ccccc1/C=C1\SC(=S)N(CCC(=O)NCCCn2ccnc2)C1=O`: the cell number change is -4.29%. Further, the AC50 under setting [2] is 0.461 µM [falling, single point].
Regarding `O=C(O)C1CCN(c2ccccc2[N+](=O)[O-])CC1`, the cell number change is -8.53%.
Regarding `Cc1cccc(N2C(=O)C3C4C=CC(C4)C3C2=O)c1` (stereo not given), the cell number change was 5.01%. Also, under setting [2], the AC50 is 0.0731 µM [falling, full curve, poor fit].

Source of the values: PubChem BioAssay AID2685 (National Center for Advancing Translational Sciences (NCATS), 2010).
